Measurements taken from paper doi:10.1101/2020.09.10.287607 (bioRxiv, 2020).
Like-named read-outs stand apart in the source and are kept apart here. These are yes or no findings as the source states them, for the method shown. Some results given as binding are weak or reduced against the parent protein; the word gives no strength.

Chains of the proteins cited; added tags and fusions are not shown. Residues count along the entry.
UniProt Q6UXX9, residues 22-243: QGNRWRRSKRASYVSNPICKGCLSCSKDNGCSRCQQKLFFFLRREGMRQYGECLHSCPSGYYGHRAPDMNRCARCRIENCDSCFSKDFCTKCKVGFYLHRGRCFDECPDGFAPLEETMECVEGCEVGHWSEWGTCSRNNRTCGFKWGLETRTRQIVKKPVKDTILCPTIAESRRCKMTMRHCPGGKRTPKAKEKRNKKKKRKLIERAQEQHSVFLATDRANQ

Columns and labels:
Assay in all cases: in vitro binding assay
[1] = molecular target: recombinant human RSPO2 (Peprotech 120-43) (human) (UniProt Q6UXX9)
[2] = molecular target: T1, recombinant human RSPO3 (Peprotech 120-44) (human) (UniProt Q9BXY4)
T1 sequence: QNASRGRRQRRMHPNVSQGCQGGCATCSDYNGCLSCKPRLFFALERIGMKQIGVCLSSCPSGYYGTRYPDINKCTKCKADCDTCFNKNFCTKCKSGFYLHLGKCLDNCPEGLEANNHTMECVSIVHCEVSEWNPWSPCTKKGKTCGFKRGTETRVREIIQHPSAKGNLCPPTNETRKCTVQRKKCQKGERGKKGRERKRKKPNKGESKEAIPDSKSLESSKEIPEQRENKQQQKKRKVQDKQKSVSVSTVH

[3] = molecular target: recombinant human RSPO2 (Peprotech 120-43) (human) (UniProt Q6UXX9); remark: listed apart in the source
[4] = molecular target: T1, recombinant human RSPO3 (Peprotech 120-44) (human); remark: listed apart in the source

binding [1]: binds
binding [2]: binds
binding [3]: binds
binding [4]: binds
B1: BMPR1A^ECD-AP (domain or fragment, UniProt P36894 24-152, looked up)
chain: QNLDSMLHGTGMKSDSDQKKSENGVTLAPEDTLPFLKCYCSGHCPDDAINNTCITNGHCFAIIEEDDQGETTLASGCMKYEGSDFQCKDSPKAQLRRTIECCRTNLCNQYLQPTLPPVVIGPFFDGSIR
